Our source for the binding values is paper PMC2995477.

By UniProt entry, the sequences of proteins in these tests, tags left out. Where a name states a change or a piece, a line headed by the entry shows the natural chain unless it says otherwise. Chains listed by the source or under a name are the forms on record and can include a tag or linker. Residues count along the entry.
UniProt P00175: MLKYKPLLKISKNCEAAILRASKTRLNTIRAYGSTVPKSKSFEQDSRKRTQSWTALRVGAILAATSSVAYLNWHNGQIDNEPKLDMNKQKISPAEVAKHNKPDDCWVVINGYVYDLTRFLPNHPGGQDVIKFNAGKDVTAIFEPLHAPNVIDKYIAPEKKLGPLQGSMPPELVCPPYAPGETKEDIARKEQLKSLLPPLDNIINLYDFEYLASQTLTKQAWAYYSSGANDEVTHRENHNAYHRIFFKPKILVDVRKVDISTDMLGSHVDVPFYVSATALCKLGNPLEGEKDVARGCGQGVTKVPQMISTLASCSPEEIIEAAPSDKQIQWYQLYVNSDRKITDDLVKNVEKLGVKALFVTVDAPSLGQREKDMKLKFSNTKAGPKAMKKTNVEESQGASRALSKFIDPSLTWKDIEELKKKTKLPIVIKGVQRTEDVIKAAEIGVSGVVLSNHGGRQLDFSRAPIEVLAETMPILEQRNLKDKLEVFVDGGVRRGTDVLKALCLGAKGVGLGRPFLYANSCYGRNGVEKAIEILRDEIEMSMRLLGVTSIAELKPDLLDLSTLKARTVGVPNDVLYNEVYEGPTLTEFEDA
UniProt Q9BXM7: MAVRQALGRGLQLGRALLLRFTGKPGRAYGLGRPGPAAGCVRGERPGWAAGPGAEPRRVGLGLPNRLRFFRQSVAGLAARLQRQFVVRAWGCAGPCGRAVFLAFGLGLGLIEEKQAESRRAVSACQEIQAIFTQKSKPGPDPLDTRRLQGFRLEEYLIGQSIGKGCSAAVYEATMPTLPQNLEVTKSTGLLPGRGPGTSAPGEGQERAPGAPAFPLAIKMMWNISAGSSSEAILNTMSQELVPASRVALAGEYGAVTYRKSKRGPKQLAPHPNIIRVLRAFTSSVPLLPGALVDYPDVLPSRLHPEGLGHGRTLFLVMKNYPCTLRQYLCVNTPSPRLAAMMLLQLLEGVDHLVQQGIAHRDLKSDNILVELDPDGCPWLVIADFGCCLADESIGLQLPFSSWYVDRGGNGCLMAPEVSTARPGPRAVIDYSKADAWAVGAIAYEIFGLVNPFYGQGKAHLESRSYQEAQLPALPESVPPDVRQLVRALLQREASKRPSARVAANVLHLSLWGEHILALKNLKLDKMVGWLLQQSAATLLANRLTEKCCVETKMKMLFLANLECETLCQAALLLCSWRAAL
wildtype PINK1-flag: residues 78-581 of Q9BXM7
Δ151 PINK1: residues 152-581 of Q9BXM7
L347P PINK1 (Q9BXM7, form named): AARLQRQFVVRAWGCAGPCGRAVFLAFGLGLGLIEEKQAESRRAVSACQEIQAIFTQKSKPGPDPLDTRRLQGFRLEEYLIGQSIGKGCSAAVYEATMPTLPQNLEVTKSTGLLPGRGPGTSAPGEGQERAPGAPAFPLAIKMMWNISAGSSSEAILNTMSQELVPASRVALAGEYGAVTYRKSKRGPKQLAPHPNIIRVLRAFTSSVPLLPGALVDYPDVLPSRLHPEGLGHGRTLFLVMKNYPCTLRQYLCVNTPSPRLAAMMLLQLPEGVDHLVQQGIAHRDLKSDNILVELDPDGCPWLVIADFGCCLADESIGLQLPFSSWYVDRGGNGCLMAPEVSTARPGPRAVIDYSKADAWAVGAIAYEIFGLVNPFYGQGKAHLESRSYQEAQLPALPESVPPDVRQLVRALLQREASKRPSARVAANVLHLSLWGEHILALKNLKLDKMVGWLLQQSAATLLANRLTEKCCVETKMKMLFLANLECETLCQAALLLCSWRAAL
UniProt P08238: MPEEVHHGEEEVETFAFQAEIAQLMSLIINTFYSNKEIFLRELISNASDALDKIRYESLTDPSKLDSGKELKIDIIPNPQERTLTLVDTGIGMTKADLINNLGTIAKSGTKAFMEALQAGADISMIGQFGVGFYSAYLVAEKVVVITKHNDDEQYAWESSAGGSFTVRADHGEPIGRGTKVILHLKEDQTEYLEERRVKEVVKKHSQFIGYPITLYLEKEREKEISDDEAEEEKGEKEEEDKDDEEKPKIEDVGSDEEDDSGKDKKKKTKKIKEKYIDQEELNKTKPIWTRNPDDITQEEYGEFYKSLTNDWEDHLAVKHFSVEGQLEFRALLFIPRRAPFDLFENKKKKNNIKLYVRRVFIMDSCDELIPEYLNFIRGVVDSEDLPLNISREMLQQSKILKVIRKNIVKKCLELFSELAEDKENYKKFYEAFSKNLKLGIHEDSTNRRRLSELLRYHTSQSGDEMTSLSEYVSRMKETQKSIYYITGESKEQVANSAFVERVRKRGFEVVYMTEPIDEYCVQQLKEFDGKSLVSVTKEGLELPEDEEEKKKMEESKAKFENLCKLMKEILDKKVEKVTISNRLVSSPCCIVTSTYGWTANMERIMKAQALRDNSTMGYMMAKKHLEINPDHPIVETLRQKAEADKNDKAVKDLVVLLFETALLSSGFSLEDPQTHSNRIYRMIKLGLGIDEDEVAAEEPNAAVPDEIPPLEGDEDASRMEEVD

What all share (assay): co-IP; transfected HeLa CCL-2 cells lysed in 1% Triton X-100 buffer (20 mM HEPES pH 7.5, 150 mM NaCl, 10% glycerol, 1 mM EDTA); rabbit anti-FLAG or anti-GFP immunoprecipitation at 4°C overnight, Protein A/G PLUS agarose, three washes; endogenous Hsp90 detected by blot
The target in test [1] is mito-Δ151 PINK1 (yeast | human) (UniProt P00175+Q9BXM7).
The target of test [2] is wildtype PINK1-flag (human) (UniProt Q9BXM7).
Test [3] addresses Δ151 PINK1 (human) (UniProt Q9BXM7).
In test [4] the target is mito-L347P PINK1 (yeast | human) (UniProt P00175+Q9BXM7).
Test [5] has as its target L347P PINK1 (human) (UniProt Q9BXM7).

These are yes or no findings as the source states them, for the method shown. Binding seen in cells or lysates may run through a third protein. Some results given as binding are weak or reduced against the parent protein; the word gives no strength.

With Hsp90 (from UniProt P08238 1-724), the binding entry in test [1] was “binds”; in test [2], “binds”; in test [3], “binds”; in test [4] it was “binds weakly”; in test [5], “binds weakly”.
